The text below walks through data of PMC6988918.

Results are given in words; binding and its absence hold for the method and conditions named. Binding seen in cells or lysates may run through a third protein. These calls come from enrichment with a bait or labelling near it, and not all partners need be listed.

B1: Uncharacterized protein (M0RD07) (protein, UniProt M0RD07 1-93)
chain: MRMMAMQMMTNSISDAMERYKELIQVNSSYNIRQSQLLREQAQLKNNIQILLNEKRELLVEETELPASSVEAKRLCEEAGMNICDPRAKQQQV
B2: Regulator of microtubule dynamics protein 1 (protein, UniProt Q4G069 1-310)
chain: MALSSRLWRLLPLLRGAEQSVCQLARSWGSGGRCGTWGFRGSEVTGNTRAFKRGLLFSALSYLGFETYQVISQAAVVHATAKVEEILEQADYLYESGETEKLYQLLTQYKESEDVELLWRLARASRDIAQLCKTSEEEKKVLLYEALEYAKRALEKKGSSFAAHKWYAICISDVGDYEGIKVKIANAYVIKEHFEKAIELNPKDATSIHLMGIWCYTFAEMPWYQRRIAEVLFANPPSSTYEEALKYFHRAEEVDPNFYSKNLLLLGKTYLKLNNKKLAAFWLVKAKSYPAHTEEDKQIQTEAAQLLTGL
B3: Isoleucyl-tRNA synthetase (protein, UniProt F1LS86 1-1262)
chain: MVQQVPENISFPAEEEKILQFWSKYNCFQECLKQSKLRPKFTFYDGPPFATGLPHYGHILAGTIKDIVTRYAHQSGFHVDRRFGWDCHGLPVEYEIDKTLGIKGPEDVAKMGIAEYNKQCRAIVMRYSAEWKSTVTRLGRWIDFDNDYKTLYPQFMESVWWVFKQLYDKGLVYRGVKVMPFSTACGTPLSNFESNQNYKDVQDPSVFVTFPLEEDENTSLVAWTTTPWTLPSNLALCVNPEIQYVKIKDVSRGKLFILMEARLSALYKQESDYEILERFPGASLKGKKYKPLFDYFIKCKENGAFTVLVDHYVKDEEGTGVVHQAPYFGADDHRVCMDFNIIQKDSAPVCPVDASGCFTEEVTHFVGQYVKDADKNIIRMLKEQGRLLVASTFTHSYPFCWRSDTPLIYKSVPSWFVRVEHMVDQLLKNNDLCYWVPEFVREKRFGNWLKEARDWAISRNRYWGTPIPLWVSEDFEEVVCIGSVAELEELSGTKISDLHRESIDHLTIPSRCGKGPLRRVSEVFDCWFESGSMPYAQVHYPFESKREFEDAFPADFIAEGIDQTRGWFYTLLVLATALFGQPPFKNVIVNGLILASDGQKMSKRKKNYPDPVSIINKYGADALRLYLINSPVVRAENLRFKEEGVRDVLKDVLLPWYNAYRFFIQNVFRLHKEEEVEFLYNEHTVRESPNITDRWILSFMQSLIAFFETEMAAYRLYTVVPRLVKFVDILTNWYVRMNRRRLKGENGMEDCVMALETLFSVLLSLCRLMAPYTPFLTELMYQNLKLLIDPASIRDKDTLSIHYLMLPHVREELIDKKTENAVSRMQSVIELGRVIRDRKTIPIKYPLKEIVVIHQDPEALEDIKSLEKYIIEELNVRKVTLSTDKNKYGIRLRAEPDHMVLGKRLKGAFKAVMVAVKQLSNEELEQFQKSGSIVVEGHELHEEDIRLMYTFDQATGGTAQFEAHSDAQALVLLDVTPDQSMVDEGMAREVINRIQKLRKKCNLVPTDEITVYYNAKSEGRYLSNVIESHTDFIYATIKAPLKPYPVPTSDNILIQEQTQLKGYELEITITRGSCVPGPACAYVNLNICANGTEQGGVLLLENPKGDNQLNLEKLKSVITSIFGVKSTGLSVFNGGTELQNQTDLLSLSGRTLCVTAGASLAPASSPSTLLCQYINLQLVNAEPQECLTGTVGTLLLENPLGQNGLTHQGLVYEAAKVFGLRSRRLKLFLNETQTQEITEDIPMKTLNMKTVYVSVLPTTADG
B4: Electron transfer flavoprotein subunit beta (protein, UniProt Q68FU3 1-255)
chain: MAELRALVAVKRVIDFAVKIRVKPDKSGVVTDGVKHSMNPFCEIAVEEAVRLKEKKLVKEIIAVSCGPPQCQETIRTALAMGADRGIHVEVPGAEAENLGPLQVARVLAKLAEKEKVDLLFLGKQAIDDDCNQTGQMTAGLLDWPQGTFASQVTLEGDKVKVEREIDGGLETIRLKLPAVVTADLRLNEPRYATLPNIMKAKKKKIEVIKAGDLGVDLTSKVSVISVEEPPQRLAGVKVETTEDLVAKLKEVGRI
B5: Calsequestrin-2 (protein, UniProt P51868 20-413)
chain: EEGLNFPTYDGKDRVVSLSEKNLKQVLKRYDLLCLYYHEPVSSDKVAQKQFQLKEIVLELVAQVLEHKNIGFVMVDSRKEAKLAKRLGFSEEGSLYVLKGGRTIEFDGEFAADVLVEFLLDLIEDPVEIVNNKLEVQAFERIEDQIKLLGFFKNEDSEYYKAFQEAAEHFQPYIKFFATFDKGVAKKLSLKMNEVGFYEPFMDEPSVIPNKPYTEEELVEFVKEHQRPTLRPLRPEDMFETWEDDLNGIHIVAFAEKSDPDGYEFLEILKQVARDNTDNPDLSILWIDPDDFPLLVAYWEKTFKIDLFKPQIGVVNVTDADSVWMEIPDDDDLPTAEELEDWIEDVLSGKINTEDDDNEDEDDDGDNDNDDDDDDDDNSDEDNDDSDDDDDDDE
B6: Solute carrier family 25 member 13 (protein, UniProt F1LZW6 1-676)
chain: MAAAKVALTKRADPAELKAIFLKYASIEKNGEFFMSPHDFVTRYLNIFGESQPNPKTVELLSGVVDQTKDGLISFQEFVAFESVLCAPDALFMVAFQLFDKAGKGEVTFEDVRQVFGQTTIHQHIPFNWDSEFVQLHFGKERKRHLTYAEFTQFLLEIQLEHAKQAFVQRDNAKTGKVTAIDFRDIMVTIRPHVLTPFVEECLVAAAGGTRSHQVSFSYFNGFNSLLNNMELIRKIYSTLAGSRKDVEVTKEEFALAAQKFGQVTPMEVDILFQLADLYEPRGRMTLADIERIAPLEEGMLPFNLAEAQRQQKASGDAARPFLLQLAESAYRFGLGSIAGAVGATAVYPIDLVKTRMQNQRSTGSFVGELMYKNSFDCFKKVLRYEGFFGLYRGLLPQLLGVAPEKAIKLTVNDFVRDKFMHKDGSVPLLAEIFAGGCAGGSQVIFTNPLEIVKIRLQVAGEITTGPRVSALSVVRDLGFFGIYKGAKACFLRDIPFSAIYFPCYAHVKASFANEDGQVSPGSLLLAGAIAGMPAASLVTPADVIKTRLQVAARAGQTTYSGVTDCFRKILREEGPKALWKGAGARVFRSSPQFGVTLLTYELLQRWFYVDFGGVKPVGSELVPKSRITLPAPNPDHVGGYKLAVATFAGIENKFGLYLPLFKPSASTSKVTAVGS
B7: Slit homolog 2 protein (Fragment) (protein, UniProt Q9WVC1 31-766)
chain: QCSCSGSTVDCHGLALRIVPRNIPRNTERLDLNGNNITRITKTDFAGLRHLRILQLMENKISTIERGAFHDLKELERLRLNRNNLQLFPELLFLGTAKLYRLDLSENQIQAIPRKAFRGAVDIKNLQLDYNQISCIEDGAFRALRDLEVLTLNNNNITRLSVASFNHMPKLRTFRLHSNNLYCDCHLAWLSDWLRQRPRVGLYTQCMGPSHLRGHNVAEVQKREFVCSDEEEGHQSFMAPSCSVLHCPIACTCSNNIVDCRGKGLTEIPTNLPETITEIRLEQNSIRVIPPGAFSPYKKLRRLDLSNNQISELAPDAFQGLRSLNSLVLYGNKITELPKSLFEGLFSLQLLLLNANKINCLRVDAFQDLHNLNLLSLYDNKLQTVAKGTFSALRAIQTMHLAQNPFICDCHLKWLADYLHTNPIETSGARCTSPRRLANKRIGQIKSKKFRCSGTEDYRSKLSGDCFADLACPEKCRCEGTTVDCSNQKLNKIPDHIPQYTAELRLNNNEFTVLEATGIFKKLPQLRKINLSNNKITDIEEGAFEGASGVNEILLTSNRLENVQHKMFKGLESLKTLMLRSNRISCVGNDSFTGLGSVRLLSLYDNQITTVAPGAFGTLHSLSTLNLLANPFNCNCHLAWLGEWLRRKRIVTGNPRCQKPYFLKEIPIQDVAIQDFTCDDGNDDNSCSPLSRCPSECTCLDTVVRCSNKGLKVLPKGIPRDVTELYLDGNQFTLVP
B8: Acyl-coenzyme A thioesterase 2, mitochondrial (protein, UniProt O55171 43-453)
chain: NATLSLEPGSRSCWDEPLSITVRGLAPEQPVTLRAALRDEKGALFRAHARYRADAGGELDLARAPALGGSFTGLEPMGLIWAMEPERPLWRLVKRDVQKPYVVELEVLDGHEPDGGQRLAQAVHERHFMAPGVRRVPVRDGRVRATLFLPPEPGPFPEIIDLFGVGGGLLEYRASLLAGKGFAVMALAYYNYDDLPKTMETMRIEYFEEAVNYLRGHPEVKGPGIGLLGISKGGELGLAMASFLKGITAAVVINGSVAAVGNTVCYKDETIPPVSLLRDKVKMTKDGLLDVVEALQSPLVDKKSFIPVERSDTTFLFLVGQDDHNWKSEFYAREASKRLQAHGKEKPQIICYPEAGHYIEPPYFPLCSAGMHLLVGANITFGGEPKPHSVAQLDAWQQLQTFFHKQLSGKS
B9: Fructose-bisphosphate aldolase A (protein, UniProt P05065 1-364)
chain: MPHPYPALTPEQKKELADIAHRIVAPGKGILAADESTGSIAKRLQSIGTENTEENRRFYRQLLLTADDRVNPCIGGVILFHETLYQKADDGRPFPQVIKSKGGVVGIKVDKGVVPLAGTNGETTTQGLDGLSERCAQYKKDGADFAKWRCVLKIGEHTPSSLAIMENANVLARYASICQQNGIVPIVEPEILPDGDHDLKRCQYVTEKVLAAVYKALSDHHVYLEGTLLKPNMVTPGHACTQKFSNEEIAMATVTALRRTVPPAVPGVTFLSGGQSEEEASINLNAINKCPLLKPWALTFSYGRALQASALKAWGGKKENLKAAQEEYIKRALANSLACQGKYTPSGQSGAAASESLFISNHAY
B10: Protein Niban (protein, UniProt Q9ESN0 1-937)
chain: MGGSASSQLDEGKCAYIRGKTEASIKNFSPYYSRQYSVAFCNHVRSEVEQQRDLTSQFLKTKPPLEPGTVLYEAELSQFAEDIRKWKDRYVVVKNDFAVESYENKEAYQRGAVPKSRILPAGGKVLTSEEEYSLLSDKHFPDPTASSEKNSQPFLVLPKAFPVYLWQPYLRHGYFCFHEAAEQQKFSALLNDCIRHLNHDYMKQTTFEAQAFLEAVQFFRQEKGHYGAWEVITGDEVQILSKLVMEELLPTLQTDLLPKLKGKKNDRKRAWFGLLEEAYNLVQHQVSEGLSALKEECRALTKDLEGTIRSDMDQIVNSKNFLTGKIRAMVAQPAENRCGESVQPFLASILEELMGPVSSGFSEVRALFEKEVDELSQSFHTTQDGAQLKECLDQLMKLPLDSVKMEPCYTKVTLLPERLLDLQSRFRFPHVDLVVQRTQNYMQELMENAVFTFEQLLSPYLQGEASRTAVAIEKVKLRVLKQYDYDSSTIRKKIFQEALIQITLPTVQKALASTCKPELQKYEQFIFADHTNMIHVENIYEEILYQILLDETLKVITEAAILKKHNLFEDNMALPSESVSSLTDLKTSMGSNQASPARGASAILPGAPGDEAPGSEVFQGPEEKQQQPGVPGSLAREESASISGSSPPSGEDGQVSVSGVDNSAGNPLSADNSAGPLSSHLSEAEAGEPPKDEETAHKRPESSAVPGSLRELKELLTVTVFVESAPEIGNDTLNGTPVPQEDKKEEEEEEESKIHPEASGPAAIQQDSCEESEVREREAHPMPLEAEAPGVNLGTLPEGRGPTSQSTGEGLTENTSCLGPIEEPSEAQGPTEEVLLATVSTQDSTEAGGEAVHSVTVTPQEDATLSSNPICPVENNEGPQVSEDQEVLGGNDSPALAMDTEQINDAHVYECHWEVEDAPSADILDVHDCDVGSPGEW

The experiment deals with Akt (protein kinase B) (rat (endogenous in rat cardiomyocytes)). The experiment in a line: affinity purification with mass spectrometry; Akt precipitated with polyclonal Akt 1/2/3 antibody (sc-8312) and protein A-Sepharose from 1% NP-40 lysates of cardiomyocytes of control and MetS rats stimulated with 100 nM insulin for 10 min; label-free mass spectrometry of the immune complexes.
For the molecule B1, the binding result is given as “binds”. For B2, the binding entry is given as “binds”.

As for B3, the binding entry is on record as “binds”. Regarding B4, the binding result is “binds”. The result for B5 reads “binds”. For the molecule B6, the binding result is listed as “binds”. Next, B7: “binds”.

On to B8, for which the binding entry is recorded as “binds”. The result for B9 reads “binds”.

With B10, the binding result is “binds”.
